Taken from: PubChem BioAssay AID1259254 (NCATS, 2017)
Here is an unselected part of about 59,000 reagents tested. About 1,550 of all reagents (2.6%) count as active. 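G2 share is only a proxy for re-replication; each gene was hit by three separate siRNAs, and active genes were retested.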 Unmarked entries are inactive. The numbers tell different reagents against one gene apart. Further read-outs or replicates are left out here. Reagent sequences are not shown. Not stated in the record: the amount of reagent.

- Purpose: 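Gene knock-downs that lead to re-replication, shown by excess G2 DNA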 (primary screen)
- Cells: human HCT116 colorectal cancer cells
- Reagents: single siRNA against human genes
- Timing: 3 days
- Measurement: 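Imaged Hoechst DNA stain sorts each cell into a cycle phase by DNA amount; per plate, G2 fraction set to 0% for non-targeting and 100% for GMNN siRNA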
- Scale: G2 robust z-score and G2 cells, % of GMNN control: higher = more G2 cells, more excess DNA replication
- Hit rule: 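Active siRNAs have a G2 robust z of 5 or more median absolute deviations over the median, which in these data means about 38% or higher of GMNN control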

ZNF212 (GeneID 7988) #1
- G2 robust z-score: 3.53
- G2 cells, % of GMNN control: 27.8

ZNF212 (GeneID 7988) #2
- G2 robust z-score: 0.303
- G2 cells, % of GMNN control: 5.1

ZNF212 (GeneID 7988) #3
- G2 robust z-score: -0.852
- G2 cells, % of GMNN control: -3.03

EEF1AKMT2 (GeneID 399818) #1
- G2 robust z-score: -0.176
- G2 cells, % of GMNN control: 1.73

EEF1AKMT2 (GeneID 399818) #2
- G2 robust z-score: -0.0511
- G2 cells, % of GMNN control: 2.61

EEF1AKMT2 (GeneID 399818) #3
- G2 robust z-score: -0.434
- G2 cells, % of GMNN control: -0.0882

SLC12A2 (GeneID 6558) #1
- G2 robust z-score: -0.389
- G2 cells, % of GMNN control: 0.228

SLC12A2 (GeneID 6558) #2
- G2 robust z-score: -0.67
- G2 cells, % of GMNN control: -1.74

SLC12A2 (GeneID 6558) #3
- G2 robust z-score: -0.355
- G2 cells, % of GMNN control: 0.47

EIF4G1 (GeneID 1981) #1
- G2 robust z-score: 0.37
- G2 cells, % of GMNN control: 5.57

EIF4G1 (GeneID 1981) #2
- G2 robust z-score: 0.466
- G2 cells, % of GMNN control: 6.25

EIF4G1 (GeneID 1981) #3
- G2 robust z-score: 2.14
- G2 cells, % of GMNN control: 18

PPP2CA (GeneID 5515) #1
- G2 robust z-score: 0.364
- G2 cells, % of GMNN control: 5.53

PPP2CA (GeneID 5515) #2
- G2 robust z-score: 0.751
- G2 cells, % of GMNN control: 8.25

PPP2CA (GeneID 5515) #3
- G2 robust z-score: 0.409
- G2 cells, % of GMNN control: 5.85

DPH6 (GeneID 89978) #1
- G2 robust z-score: -0.943
- G2 cells, % of GMNN control: -3.66

DPH6 (GeneID 89978) #2
- G2 robust z-score: -0.465
- G2 cells, % of GMNN control: -0.304

DPH6 (GeneID 89978) #3
- G2 robust z-score: 0.293
- G2 cells, % of GMNN control: 5.03

Ordered by “G2 robust z-score” (high to low): some entries from above.
SLC12A2 (GeneID 6558) #3
- G2 robust z-score: -0.355
- G2 cells, % of GMNN control: 0.47

SLC12A2 (GeneID 6558) #1
- G2 robust z-score: -0.389
- G2 cells, % of GMNN control: 0.228

EEF1AKMT2 (GeneID 399818) #3
- G2 robust z-score: -0.434
- G2 cells, % of GMNN control: -0.0882

SLC12A2 (GeneID 6558) #2
- G2 robust z-score: -0.67
- G2 cells, % of GMNN control: -1.74

The listing continues:
EEF1B2P5 (GeneID 442227) #1
- G2 robust z-score: -0.134
- G2 cells, % of GMNN control: 2.03

EEF1B2P5 (GeneID 442227) #2
- G2 robust z-score: 1.13
- G2 cells, % of GMNN control: 10.9

EEF1B2P5 (GeneID 442227) #3
- G2 robust z-score: 0.237
- G2 cells, % of GMNN control: 4.64

LINC03007 (GeneID 646588) #1
- G2 robust z-score: 0.243
- G2 cells, % of GMNN control: 4.68

LINC03007 (GeneID 646588) #2
- G2 robust z-score: 0.586
- G2 cells, % of GMNN control: 7.09

LINC03007 (GeneID 646588) #3
- G2 robust z-score: 0.535
- G2 cells, % of GMNN control: 6.73

ARMH4 (GeneID 145407) #1
- G2 robust z-score: -0.923
- G2 cells, % of GMNN control: -3.53

ARMH4 (GeneID 145407) #2
- G2 robust z-score: 0.735
- G2 cells, % of GMNN control: 8.14

ARMH4 (GeneID 145407) #3
- G2 robust z-score: -0.845
- G2 cells, % of GMNN control: -2.98

BACH2 (GeneID 60468) #1
- G2 robust z-score: 1.59
- G2 cells, % of GMNN control: 14.1

BACH2 (GeneID 60468) #2
- G2 robust z-score: -0.41
- G2 cells, % of GMNN control: 0.0851

BACH2 (GeneID 60468) #3
- G2 robust z-score: 1.28
- G2 cells, % of GMNN control: 12
